This test concerns the target Prohibitin 2 (UniProt O35129). The test is described as follows: co-IP; cell lysate (150 mM NaCl, 10% glycerol, 20 mM Tris-HCl pH 7.4, 2 mM EDTA, 0.5% Nonidet P-40, 0.5% Triton X-100, protease inhibitor) incubated with anti-Flag M2 affinity gel at 4 °C overnight; six washes; Western blot; Flag-tagged bait not stated. For orientation: A western blot detects proteins with antibodies after separation by electrophoresis.

Amino acid sequences for entries named in this document (tags omitted).
UniProt O35129: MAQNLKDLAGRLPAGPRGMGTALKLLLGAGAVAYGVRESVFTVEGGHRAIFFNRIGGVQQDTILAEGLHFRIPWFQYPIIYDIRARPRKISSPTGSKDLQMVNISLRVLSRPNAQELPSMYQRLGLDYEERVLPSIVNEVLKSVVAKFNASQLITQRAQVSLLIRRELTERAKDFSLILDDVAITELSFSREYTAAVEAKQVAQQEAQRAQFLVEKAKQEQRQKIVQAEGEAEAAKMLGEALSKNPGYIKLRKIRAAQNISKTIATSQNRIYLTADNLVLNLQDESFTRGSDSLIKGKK

Results are given in words; binding and its absence hold for the method and conditions named. Binding seen in cells or lysates may run through a third protein. Some entries that bind do so weakly or less than the wild type.

B1: Dual-specificity phosphatase 1 (enzyme, UniProt P28563 1-367)
chain: MVMEVGILDAGGLRALLREGAAQCLLLDCRSFFAFNAGHIAGSVNVRFSTIVRRRAKGAMGLEHIVPNAELRGRLLAGAYHAVVLLDERSASLDGAKRDGTLALAAGALCREARSTQVFFLQGGYEAFSASCPELCSKQSTPTGLSLPLSTSVPDSAESGCSSCSTPLYDQGGPVEILSFLYLGSAYHASRKDMLDALGITALINVSANCPNHFEGHYQYKSIPVEDNHKADISSWFNEAIDFIDSIKDAGGRVFVHCQAGISRSATICLAYLMRTNRVKLDEAFEFVKQRRSIISPNFSFMGQLLQFESQVLAPHCSAEAGSPAMAVLDRGTSTTTVFNFPVSIPVHPTNSALNYLKSPITTSPSC
Take B1: the binding result is listed as “binds”.
